Source: patent EP3724209B1, “ELASTOMERIC PEPTIDE” (Politecnico di Milano, priority 2017, dated 2019)
Read-outs that look alike come from different tables or passages of the source. Part of at least one peptide drawing is inferred or uncertain, most often the ends. Where a SMILES comes first, the peptide text is derived from it. [ ]: non-standard residue; d: D form. Tyr(3,5-Br2) = N[C@@H](Cc1cc(Br)c(O)c(Br)c1)C(=O)O

Columns and labels:
[1] = tested on: human keratinocytes (HuKe); assay: protection against UVA-induced oxidative stress, ROS formation by DCFH-DA; assay type: cell-based; conditions: UVA irradiation, 300 to 9 pg/ml
elastin = elastin gene expression profile by qRT-PCR; assay type: cell-based, human; conditions: hSF, 500 pg/ml, compared to untreated cell
hSF = assay: mitogenic activity evaluation (MTT and Bradford assays); assay type: cell-based, human
[2] = tested on: Pseudokirchneriella sub capitata; conditions: assay time 72h
Method: An ecotoxicity test on Pseudokirchneriella sub capitata was performed to evaluate I% (inhibition percentage effect) and IC50 (concentration which determines the 50% inhibition of growth on the population) of the halogenated peptide SDS-Y(3,5 Br)-GAP.
The halogenated peptide SDS-Y(3,5 Br)-GAP was dissolved in water at 100 mg/l and tested at the following concentrations: 50 mg/l, 25 mg/l, 12.5 mg/l and 6.25 mg/l. Each sample was tested in triplicate.
After 72 hours of incubation with the sample or controls, a spectrophotometric test was performed at 670nm as a measure of cell density.

[3] = Dynamic Light Scattering aging study (autocorrelation lag time); assay type: physicochemical; conditions: 10 mM in water
Method: Dynamic Light Scattering measurements were performed on an ALV/CGS-3 Platform-based Goniometer System equipped with an ALV-7004 correlator and an ALV/CGS-3 goniometer. The signal was detected by an ALV-Static and Dynamic Enhancer detection unit. The light source was the second harmonic of a diode-pumped Coherent Innova Nd:YAG laser (λ = 532 nm), linearly polarized in the vertical direction. Measurements were performed at 25°C. Approximately 1 ml of sample solution was transferred into the cylindrical Hellma scattering cell.
The dynamic information on structures present in the peptide solutions were derived from the normalized autocorrelation function g2 (q, τ) of the scattered intensity, which is measured according to g2 (q, τ) = (〈I(q, t)I(q,t+τ)〉)/((〈I(q, t)〉)^2) [formula] where q is the scattering vector, τ is the relaxation time and I is the scattered intensity. Higher relaxation times correspond to larger self-assembled structures. […] Results are reported in Figure 7, as graphs showing the autocorrelation functions of wild type (panel A) or halogenated (panel B) oligopeptide 10 mM in water at 90°C. The autocorrelation functions at 90°C show increasing Lag Time, i.e., increasing dimensions of the self-assembled structures, over time. Table 1 summarizes and compares the results, showing that halogenated oligopeptide form bigger structures compared to the wild type one. This is a further indication that bromine atoms play a role in the aggregation behavior of the peptide sequence. The same aging study was performed in buffer at pH 7, with similar results (data not shown).

Question: Which ROS release [1] does the source give for C[C@H](NC(=O)CNC(=O)[C@H](Cc1cc(Br)c(O)c(Br)c1)NC(=O)[C@H](CO)NC(=O)[C@H](CC(=O)O)NC(=O)[C@@H](N)CO)C(=O)N1CCC[C@H]1C(=O)O [SDS-Y(3,5 Br)-GAP] (H-SDS[Tyr(3,5-Br2)]GAP-OH) here?
Answer: reduction of ROS release

Question: And the “Fold change of elastin gene expression” value (elastin)?
Answer: statistically significant

Question: And the “concentration of the highest effect on protein synthesis” value (hSF; after 48h exposure)?
Answer: 0,5 mg/ml

Question: What about the “protein synthesis (total cellular protein content, Bradford)” value (hSF; serum-free medium, 24 and 48 hours exposure) of the same compound?
Answer: able to stimulate protein synthesis

Question: What about the “Media I% Medium I%” value ([2]; 31.25mg/l) of the same compound?
Answer: 48%

Question: What about the “Media I% Medium I%” value ([2]; 62.5mg/l) of the same compound?
Answer: 54%

Question: And the “Media I% Medium I%” value ([2]; 125mg/l)?
Answer: 55%

Question: What about the “Media I% Medium I%” value ([2]; 250mg/l) of the same compound?
Answer: 100%

Question: And the “Media I% Medium I%” value ([2]; 500mg/l)?
Answer: 100%

Question: What about the Lag time ([3]; aging time t=0) of the same compound?
Answer: 2.647 ms

Question: What about the Lag time ([3]; aging time t=1 week) of the same compound?
Answer: 11.08 ms

Question: What about the Lag time ([3]; aging time t=24 h) of the same compound?
Answer: 6.751 ms

Question: What about the Lag time ([3]; aging time t=48 h) of the same compound?
Answer: 8.283 ms
